The values that follow come from article PMC3474824.

Chains of the proteins cited; added tags and fusions are not shown.
UniProt P05549: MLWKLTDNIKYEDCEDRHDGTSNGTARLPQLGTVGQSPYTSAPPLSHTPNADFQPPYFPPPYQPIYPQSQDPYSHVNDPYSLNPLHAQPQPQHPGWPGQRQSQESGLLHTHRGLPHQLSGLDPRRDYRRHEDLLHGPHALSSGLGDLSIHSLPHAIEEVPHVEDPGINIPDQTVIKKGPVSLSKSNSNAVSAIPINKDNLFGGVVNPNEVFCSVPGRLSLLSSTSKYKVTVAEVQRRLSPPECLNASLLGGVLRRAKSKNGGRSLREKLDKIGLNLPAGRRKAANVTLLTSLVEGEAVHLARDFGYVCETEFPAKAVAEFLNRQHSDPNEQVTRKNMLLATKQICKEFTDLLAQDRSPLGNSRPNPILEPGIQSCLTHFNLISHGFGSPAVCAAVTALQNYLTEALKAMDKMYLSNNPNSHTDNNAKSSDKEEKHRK

In the assay the target is GST-TFAP2A (UniProt P05549). In words: pull-down; GST fusion proteins (GST-TFAP2A, GST-EP300CH1) as bait, 35S-labelled CITED2 or CITED2-T166N as prey, read by autoradiography of gels; performed as previously described (ref. 10); only the target purified.

No constants are given. Whether binding was seen depends on the method and setting. Binding seen in cells or lysates may run through a third protein. Some entries that bind do so weakly or less than the wild type.

B1: CITED2-T166N, 35S-labelled (protein, UniProt Q99967 1-270)
chain: MADHMMAMNHGRFPDGTNGLHHHPAHRMGMGQFPSPHHHQQQQPQHAFNALMGEHIHYGAGNMNATSGIRHAMGPGTVNGGHPPSALAPAARFNNSQFMGPPVASQGGSLPASMQLQKLNNQYFNHHPYPHNHYMPDLHPAAGHQMNGTNQHFRDCNPKHSGGSSNPGGSGGSSTPGGSGSSSGGGAGSSNSGGGSGSGNMPASVAHVPAAMLPPNVIDTDFIDEEVLMSLVIEMGLDRIKELPELWLGQNEFDFMTDFVCKQQPSRVSC
modifications: 35S-labelled
With B1, the binding result is on record as “binds”.

B2: CITED2 (wild type), 35S-labelled (protein, UniProt Q99967 1-270)
chain: MADHMMAMNHGRFPDGTNGLHHHPAHRMGMGQFPSPHHHQQQQPQHAFNALMGEHIHYGAGNMNATSGIRHAMGPGTVNGGHPPSALAPAARFNNSQFMGPPVASQGGSLPASMQLQKLNNQYFNHHPYPHNHYMPDLHPAAGHQMNGTNQHFRDCNPKHSGGSSTPGGSGGSSTPGGSGSSSGGGAGSSNSGGGSGSGNMPASVAHVPAAMLPPNVIDTDFIDEEVLMSLVIEMGLDRIKELPELWLGQNEFDFMTDFVCKQQPSRVSC
modifications: 35S-labelled
As for B2, the binding entry was “binds”.
